The results in this text go back to paper PMC10010612.

For experiment [1], the target named is T1, Tsw coiled-coil (CC) domain (1-169 aa) (Capsicum chinense).
T1 sequence: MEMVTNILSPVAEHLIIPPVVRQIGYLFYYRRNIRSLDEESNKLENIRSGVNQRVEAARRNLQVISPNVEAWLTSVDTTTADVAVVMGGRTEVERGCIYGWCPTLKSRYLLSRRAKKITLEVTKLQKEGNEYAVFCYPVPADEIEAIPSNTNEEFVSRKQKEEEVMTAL
Description: co-IP; co-IP of the NBS and CC domains of Tsw (Supplementary Fig. S3B); constructs and bait of this experiment not shown.

For experiment [2] the target is unchanged. The experiment is described as follows: native gel or EMSA; BN-PAGE (NativePAGE Novex Bis-Tris); CC-GFP transiently expressed in N. benthamiana leaves, protein extract 36 h post inoculation. Background: Mobility shift assays separate free from complexed probe on a gel.
Experiment [3] has the same target. Description: co-IP; CC-GFP and CC-Myc co-expressed in N. benthamiana leaves by agroinfiltration, 3 d; extraction buffer 25 mM Tris-HCl pH 7.5, 150 mM NaCl, 1 mM EDTA, 0.5% NP-40, 10% glycerol, 10 mM DTT; GFP-trap beads 3 h at 4 °C; blot with anti-Myc and anti-GFP.

No constants are given. Whether binding was seen depends on the method and setting. For part of these data: Binding seen in cells or lysates may run through a third protein. Some results given as binding are weak or reduced against the parent protein; the word gives no strength.

B1: Tsw nucleotide-binding site (NBS) domain (170-491 aa) (domain or fragment, UniProt A0A1C9TCM9 170-491)
chain: KDEEITIVGICGMGGVGKTSLAEKVRARAKQERLFNDVVMVTVSQQQDLKRIQGEIAGEVGLTSLQGDNLLSRGDQLRARLMQEGSRVLVILDDVWEALDDLEKLGIPTGSNHNYQCKVALTTRRQDVCDAMKAQKTVDVVILSDEEAWVLFRQKAGYSADDPSLSEVAKEVAKECKGLPLAIVIVAGALKTKTKPSWDDALVELRKASPKNIPRVLTKVYQPLKTSYDHLESDEARYVFLLCSLFEEDSDIWTEELLKYGVGLGIFSELENLECARNRVCNLLETLKNCFLLSQGKDKNYVKMHDVVRDVAIYIASEGEHK
With B1, the binding result in experiment [1] is reported as “binds”.

B2: Tsw coiled-coil (CC) domain (1-169 aa) (domain or fragment, UniProt A0A1C9TCM9 1-169)
chain: MEMVTNILSPVAEHLIIPPVVRQIGYLFYYRRNIRSLDEESNKLENIRSGVNQRVEAARRNLQVISPNVEAWLTSVDTTTADVAVVMGGRTEVERGCIYGWCPTLKSRYLLSRRAKKITLEVTKLQKEGNEYAVFCYPVPADEIEAIPSNTNEEFVSRKQKEEEVMTAL
With B2, the binding result in experiment [2] and in experiment [3] was “binds” each time.
